# Data from the supplement of paper PMC10849652.
# Sequences of proteins named here, by UniProt entry; tags and fusion partners are left off. A change or cut given only in a name is not applied to a line headed by its entry.
# UniProt Q9BT81: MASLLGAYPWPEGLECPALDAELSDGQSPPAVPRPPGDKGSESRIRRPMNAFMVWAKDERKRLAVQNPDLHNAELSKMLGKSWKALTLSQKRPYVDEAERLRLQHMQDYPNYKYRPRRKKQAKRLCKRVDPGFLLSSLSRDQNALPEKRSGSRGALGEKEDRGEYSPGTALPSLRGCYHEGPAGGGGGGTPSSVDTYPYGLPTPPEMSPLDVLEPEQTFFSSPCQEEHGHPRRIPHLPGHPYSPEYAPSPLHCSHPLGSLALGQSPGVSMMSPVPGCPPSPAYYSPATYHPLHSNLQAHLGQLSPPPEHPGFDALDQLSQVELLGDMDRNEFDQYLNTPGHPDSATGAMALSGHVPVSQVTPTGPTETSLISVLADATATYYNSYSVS
# UniProt Q00796: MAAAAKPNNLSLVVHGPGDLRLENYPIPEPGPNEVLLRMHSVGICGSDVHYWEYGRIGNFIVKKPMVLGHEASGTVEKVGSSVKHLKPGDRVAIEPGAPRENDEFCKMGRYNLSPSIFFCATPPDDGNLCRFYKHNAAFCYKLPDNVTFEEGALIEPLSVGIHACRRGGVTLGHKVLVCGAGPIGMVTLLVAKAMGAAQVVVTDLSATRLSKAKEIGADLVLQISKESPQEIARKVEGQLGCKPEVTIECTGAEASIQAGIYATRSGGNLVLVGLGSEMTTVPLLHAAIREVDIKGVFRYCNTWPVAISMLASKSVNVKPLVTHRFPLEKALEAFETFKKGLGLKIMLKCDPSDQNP
# UniProt O14508, whole entry, looked up: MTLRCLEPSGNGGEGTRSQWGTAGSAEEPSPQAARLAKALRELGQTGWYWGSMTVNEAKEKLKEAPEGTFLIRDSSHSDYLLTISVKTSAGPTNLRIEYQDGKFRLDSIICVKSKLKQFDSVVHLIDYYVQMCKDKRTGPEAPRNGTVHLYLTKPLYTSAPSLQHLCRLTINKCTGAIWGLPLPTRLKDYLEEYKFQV
# UniProt Q96DI7: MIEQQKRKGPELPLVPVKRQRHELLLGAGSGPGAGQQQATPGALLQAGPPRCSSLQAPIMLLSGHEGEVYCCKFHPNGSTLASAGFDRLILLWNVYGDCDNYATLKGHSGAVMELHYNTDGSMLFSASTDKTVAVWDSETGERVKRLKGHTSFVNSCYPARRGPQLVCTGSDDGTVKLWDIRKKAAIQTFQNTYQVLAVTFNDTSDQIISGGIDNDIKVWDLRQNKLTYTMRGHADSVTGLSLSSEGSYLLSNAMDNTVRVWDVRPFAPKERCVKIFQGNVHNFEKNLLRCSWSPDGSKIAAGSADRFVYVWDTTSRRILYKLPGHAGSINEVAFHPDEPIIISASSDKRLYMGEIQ
# UniProt Q96EX1: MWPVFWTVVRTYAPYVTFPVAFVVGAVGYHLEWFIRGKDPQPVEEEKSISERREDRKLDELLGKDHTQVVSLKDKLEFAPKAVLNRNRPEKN
# UniProt P09012, whole entry, looked up: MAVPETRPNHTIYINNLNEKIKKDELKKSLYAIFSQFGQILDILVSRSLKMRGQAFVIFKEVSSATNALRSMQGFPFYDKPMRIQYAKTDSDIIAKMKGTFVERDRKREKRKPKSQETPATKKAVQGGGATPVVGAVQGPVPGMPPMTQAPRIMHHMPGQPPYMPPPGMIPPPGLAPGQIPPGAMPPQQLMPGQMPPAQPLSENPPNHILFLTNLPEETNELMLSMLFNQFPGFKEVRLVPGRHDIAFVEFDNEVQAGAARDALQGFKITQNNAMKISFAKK
# UniProt Q6GMV2: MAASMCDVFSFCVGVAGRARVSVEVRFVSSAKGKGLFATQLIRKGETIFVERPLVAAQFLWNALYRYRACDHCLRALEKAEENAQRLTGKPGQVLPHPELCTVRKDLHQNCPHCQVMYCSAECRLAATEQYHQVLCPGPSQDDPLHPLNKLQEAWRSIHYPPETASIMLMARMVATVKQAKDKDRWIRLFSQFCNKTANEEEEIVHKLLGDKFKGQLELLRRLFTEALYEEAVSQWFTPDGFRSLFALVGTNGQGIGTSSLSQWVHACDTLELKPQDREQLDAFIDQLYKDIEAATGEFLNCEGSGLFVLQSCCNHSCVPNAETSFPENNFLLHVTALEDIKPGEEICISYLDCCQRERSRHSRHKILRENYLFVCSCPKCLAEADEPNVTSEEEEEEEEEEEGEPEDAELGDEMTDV
# UniProt Q96KF7: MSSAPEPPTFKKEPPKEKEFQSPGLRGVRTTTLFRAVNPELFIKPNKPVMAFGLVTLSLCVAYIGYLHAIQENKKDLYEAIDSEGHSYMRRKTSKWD
# UniProt Q14683: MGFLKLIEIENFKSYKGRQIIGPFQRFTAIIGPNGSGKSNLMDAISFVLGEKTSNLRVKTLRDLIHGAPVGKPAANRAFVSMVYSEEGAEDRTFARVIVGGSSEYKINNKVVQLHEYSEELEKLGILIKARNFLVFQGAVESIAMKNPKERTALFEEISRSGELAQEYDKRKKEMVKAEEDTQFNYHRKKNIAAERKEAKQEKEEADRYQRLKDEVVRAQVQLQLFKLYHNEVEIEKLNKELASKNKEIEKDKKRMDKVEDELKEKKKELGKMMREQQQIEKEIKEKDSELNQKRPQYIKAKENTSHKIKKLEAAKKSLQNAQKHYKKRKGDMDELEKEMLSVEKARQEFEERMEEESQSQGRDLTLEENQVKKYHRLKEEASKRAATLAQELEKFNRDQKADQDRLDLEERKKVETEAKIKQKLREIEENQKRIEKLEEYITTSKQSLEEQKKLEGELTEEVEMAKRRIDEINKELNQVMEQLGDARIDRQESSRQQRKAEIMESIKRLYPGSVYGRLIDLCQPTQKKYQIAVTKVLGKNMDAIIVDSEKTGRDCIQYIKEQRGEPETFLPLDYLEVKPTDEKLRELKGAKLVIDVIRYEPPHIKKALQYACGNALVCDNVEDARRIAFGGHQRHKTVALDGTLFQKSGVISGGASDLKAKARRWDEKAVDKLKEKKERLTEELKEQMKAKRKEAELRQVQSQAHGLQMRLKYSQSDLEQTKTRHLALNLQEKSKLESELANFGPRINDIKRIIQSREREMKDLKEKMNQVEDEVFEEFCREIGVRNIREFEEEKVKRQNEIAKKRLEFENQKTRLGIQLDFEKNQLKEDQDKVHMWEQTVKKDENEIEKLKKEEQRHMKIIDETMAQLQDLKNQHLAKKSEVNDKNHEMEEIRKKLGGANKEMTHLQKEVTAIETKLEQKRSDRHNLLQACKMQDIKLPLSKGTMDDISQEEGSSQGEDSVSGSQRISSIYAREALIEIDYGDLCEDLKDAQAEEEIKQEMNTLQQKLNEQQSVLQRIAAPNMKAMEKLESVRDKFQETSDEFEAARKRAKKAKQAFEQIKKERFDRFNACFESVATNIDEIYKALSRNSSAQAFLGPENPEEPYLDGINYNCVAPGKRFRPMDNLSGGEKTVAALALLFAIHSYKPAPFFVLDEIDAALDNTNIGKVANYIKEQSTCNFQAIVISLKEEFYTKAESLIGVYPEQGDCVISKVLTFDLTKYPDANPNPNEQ
# UniProt Q96R06: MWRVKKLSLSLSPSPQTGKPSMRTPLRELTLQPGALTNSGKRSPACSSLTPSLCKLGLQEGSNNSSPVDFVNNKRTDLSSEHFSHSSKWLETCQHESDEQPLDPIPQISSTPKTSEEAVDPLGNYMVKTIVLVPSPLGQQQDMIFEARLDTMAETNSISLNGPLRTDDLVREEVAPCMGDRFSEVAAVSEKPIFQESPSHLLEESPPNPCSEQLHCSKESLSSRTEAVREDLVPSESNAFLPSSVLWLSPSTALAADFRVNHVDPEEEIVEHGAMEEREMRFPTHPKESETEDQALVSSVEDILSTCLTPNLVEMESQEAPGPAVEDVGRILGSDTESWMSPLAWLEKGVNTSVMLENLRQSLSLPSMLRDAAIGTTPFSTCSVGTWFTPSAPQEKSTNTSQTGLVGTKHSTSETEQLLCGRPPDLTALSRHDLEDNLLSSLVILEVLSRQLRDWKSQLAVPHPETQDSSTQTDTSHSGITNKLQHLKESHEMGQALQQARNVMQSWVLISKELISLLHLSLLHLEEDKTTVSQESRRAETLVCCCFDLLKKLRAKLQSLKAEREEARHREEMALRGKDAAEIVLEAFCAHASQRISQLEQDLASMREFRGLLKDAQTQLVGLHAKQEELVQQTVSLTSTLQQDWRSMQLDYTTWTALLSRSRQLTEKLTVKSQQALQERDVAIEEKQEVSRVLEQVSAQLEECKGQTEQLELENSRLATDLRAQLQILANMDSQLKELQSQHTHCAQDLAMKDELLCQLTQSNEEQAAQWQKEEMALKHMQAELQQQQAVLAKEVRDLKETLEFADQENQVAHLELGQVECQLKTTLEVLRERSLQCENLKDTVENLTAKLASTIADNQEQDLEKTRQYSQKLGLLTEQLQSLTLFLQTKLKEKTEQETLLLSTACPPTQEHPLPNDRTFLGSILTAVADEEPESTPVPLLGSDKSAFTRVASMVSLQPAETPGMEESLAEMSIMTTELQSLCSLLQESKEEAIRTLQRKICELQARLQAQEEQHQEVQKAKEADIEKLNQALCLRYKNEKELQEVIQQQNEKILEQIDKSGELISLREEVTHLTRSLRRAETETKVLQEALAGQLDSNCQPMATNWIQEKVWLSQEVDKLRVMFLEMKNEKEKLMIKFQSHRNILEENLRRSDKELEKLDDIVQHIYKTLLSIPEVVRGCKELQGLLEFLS
# UniProt Q15036: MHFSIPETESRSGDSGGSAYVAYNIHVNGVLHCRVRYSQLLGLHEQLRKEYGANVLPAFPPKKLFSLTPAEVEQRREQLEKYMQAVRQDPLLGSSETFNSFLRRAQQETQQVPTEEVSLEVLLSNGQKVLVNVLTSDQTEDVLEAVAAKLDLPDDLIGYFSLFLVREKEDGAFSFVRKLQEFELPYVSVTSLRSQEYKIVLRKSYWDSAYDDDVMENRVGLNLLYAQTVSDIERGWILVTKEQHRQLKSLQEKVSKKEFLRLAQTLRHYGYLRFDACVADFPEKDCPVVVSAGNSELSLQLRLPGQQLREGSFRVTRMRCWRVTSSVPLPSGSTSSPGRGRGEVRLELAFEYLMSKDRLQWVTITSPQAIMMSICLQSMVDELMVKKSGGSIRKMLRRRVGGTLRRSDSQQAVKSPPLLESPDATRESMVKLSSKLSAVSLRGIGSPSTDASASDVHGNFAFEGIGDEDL
# UniProt O60906: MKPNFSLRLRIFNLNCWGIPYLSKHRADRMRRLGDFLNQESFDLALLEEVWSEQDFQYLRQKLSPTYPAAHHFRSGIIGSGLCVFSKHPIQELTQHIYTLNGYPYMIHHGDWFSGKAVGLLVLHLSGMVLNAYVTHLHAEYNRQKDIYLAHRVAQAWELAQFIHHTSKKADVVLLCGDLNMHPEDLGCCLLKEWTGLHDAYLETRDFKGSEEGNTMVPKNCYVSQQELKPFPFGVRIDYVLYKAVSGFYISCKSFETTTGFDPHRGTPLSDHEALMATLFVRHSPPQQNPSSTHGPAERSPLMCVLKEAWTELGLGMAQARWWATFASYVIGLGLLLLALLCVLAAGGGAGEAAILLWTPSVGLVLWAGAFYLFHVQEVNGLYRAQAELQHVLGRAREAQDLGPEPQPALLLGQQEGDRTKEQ
# UniProt P00441, whole entry, looked up: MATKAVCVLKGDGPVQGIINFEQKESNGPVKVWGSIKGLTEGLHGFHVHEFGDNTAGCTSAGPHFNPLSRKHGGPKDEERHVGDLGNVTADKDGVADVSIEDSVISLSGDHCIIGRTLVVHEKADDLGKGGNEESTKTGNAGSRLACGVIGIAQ
# UniProt Q7KZF4: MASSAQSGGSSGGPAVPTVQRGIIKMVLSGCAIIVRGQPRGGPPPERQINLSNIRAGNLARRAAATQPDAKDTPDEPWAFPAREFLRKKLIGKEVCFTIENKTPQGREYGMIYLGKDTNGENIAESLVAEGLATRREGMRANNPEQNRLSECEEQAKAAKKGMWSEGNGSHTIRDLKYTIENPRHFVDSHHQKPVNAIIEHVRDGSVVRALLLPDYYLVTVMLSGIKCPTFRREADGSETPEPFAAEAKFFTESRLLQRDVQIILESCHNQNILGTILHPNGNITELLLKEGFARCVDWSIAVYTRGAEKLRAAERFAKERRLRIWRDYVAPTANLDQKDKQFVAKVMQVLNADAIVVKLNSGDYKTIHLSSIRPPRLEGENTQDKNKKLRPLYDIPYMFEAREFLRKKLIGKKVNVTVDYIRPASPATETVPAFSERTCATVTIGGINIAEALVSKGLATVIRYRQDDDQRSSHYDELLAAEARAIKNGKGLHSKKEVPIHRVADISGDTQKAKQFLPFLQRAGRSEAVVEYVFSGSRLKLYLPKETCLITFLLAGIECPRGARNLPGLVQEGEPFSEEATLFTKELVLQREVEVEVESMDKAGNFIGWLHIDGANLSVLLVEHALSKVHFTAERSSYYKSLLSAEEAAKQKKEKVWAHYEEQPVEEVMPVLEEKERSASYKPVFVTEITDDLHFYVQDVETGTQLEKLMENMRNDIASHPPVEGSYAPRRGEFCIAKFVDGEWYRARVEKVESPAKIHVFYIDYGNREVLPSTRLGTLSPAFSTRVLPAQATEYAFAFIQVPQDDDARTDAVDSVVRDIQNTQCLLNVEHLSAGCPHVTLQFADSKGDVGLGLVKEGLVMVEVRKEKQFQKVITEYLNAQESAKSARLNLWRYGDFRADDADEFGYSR
# Some of the results follow. Residues, ends and D or L forms follow the SMILES beside them. *: point of attachment. Cbz = O=C(OCc1ccccc1)*
# How the values were obtained:
# Experiment in all cases: log2 fold change, soluble protein after heating vs DMSO (PISA); higher = thermal stabilisation; K562 cells, 10 uM, 30 min; active = over 0.2 and 3.5 SD of the protein, either way, in both replicates (recomputed)
# IRAK-1-4 Inhibitor I = compound: C1COCCN1CCN2C3=CC=CC=C3N=C2NC(=O)C4=CC(=CC=C4)[N+](=O)[O-] [IRAK-1-4 Inhibitor I]
# How it was run: (§1)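 Quantification of soluble protein used TMTpro 16plex LC-MS/MS, with channel sums equalised. Samples were the supernatant after 21,000xg for 90 min of pooled aliquots from K562 cells (2×10^6 cells/mL) treated with 10 μM compound for 30 min, heated for 3 min over 48°C-58°C, and extracted in PBS with 0.5% NP-40 at 4°C. Values, from duplicates, describe thermal stability against control samples on a log2 fold-change scale.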
# ibrutinib = compound: C=CC(=O)N1CCC[C@@H](n2nc(-c3ccc(Oc4ccccc4)cc3)c3c(N)ncnc32)C1 [ibrutinib]
# How it was run: as §1
# [1] = compound: CC(=O)c1cnc2ccc(-c3cc(Cl)c(O)c(Cl)c3)nc2c1N[C@H]1CC[C@H](CN(C)C)CC1
# How it was run: as §1
# ralimetinib = compound: CC(C)(C)Cn1c(N)nc2ccc(-c3[nH]c(C(C)(C)C)nc3-c3ccc(F)cc3)nc21 [ralimetinib]
# How it was run: as §1
# [2] = compound: CC(C)(O)CC(=O)NCCn1ccc2ncnc(Nc3ccc(Oc4cccc(C(F)(F)F)c4)c(Cl)c3)c21
# How it was run: as §1
# [3] = compound: CC(C)C1=C2N=C(C=C(N2N=C1)NCC3=CC=CC=C3)NCCCCCCN
# How it was run: as §1
# [4] = compound: CC(C)C[C@@H](C=O)NC(=O)[C@H](CC(C)C)NC(=O)[C@H](CC(C)C)NC(=O)OCc1ccccc1
# How it was run: as §1
# pinometostat = compound: CC(C)N(C[C@H]1O[C@@H](n2cnc3c(N)ncnc32)[C@H](O)[C@@H]1O)[C@H]1C[C@@H](CCc2nc3cc(C(C)(C)C)ccc3[nH]2)C1 [pinometostat]
# How it was run: as §1
# [5] = compound: CC1=C(C(CC(=O)N1)C2=CC=C(C=C2)C(F)(F)F)C(=O)NC3=C(C=C4C(=C3)C=NN4)F
# How it was run: as §1
# [6] = compound: CC1=C(C2=C(C=C1)C(=O)C3=CC=CC=C3N2CCCN)C
# How it was run: as §1
Target,log2 fold change (IRAK-1-4 Inhibitor I),log2 fold change (ibrutinib),log2 fold change [1],log2 fold change (ralimetinib),log2 fold change [2],log2 fold change [3],log2 fold change [4],log2 fold change (pinometostat),log2 fold change [5],log2 fold change [6]
SOX7 isoform 2 (UniProt Q9BT81),inactive: 0.003,inactive: -0.02,inactive: 0.183,inactive: 0.054,inactive: 0.085,inactive: -0.075,inactive: 0.194,inactive: 0.336,inactive: -0.018,inactive: -0.125
SORD (UniProt Q00796),inactive: 0.011,inactive: 0.005,inactive: 0.03,inactive: -0.037,inactive: -0.019,inactive: 0.106,inactive: -0.02,inactive: -0.072,inactive: -0.001,inactive: 0.024
SMS (UniProt P52788),inactive: 0.024,inactive: 0.034,inactive: 0.018,inactive: -0.069,inactive: -0.016,inactive: 0.02,inactive: -0.079,inactive: -0.085,inactive: 0.044,inactive: 0.028
SMC4 (UniProt Q9NTJ3),inactive: -0.077,inactive: -0.039,inactive: 0.024,inactive: 0.09,inactive: -0.092,inactive: -0.083,inactive: 0.073,inactive: 0.01,inactive: -0.014,inactive: 0.005
SON isoform 9 (UniProt P18583),inactive: 0.115,inactive: -0.042,inactive: 0,inactive: 0.228,inactive: 0.173,inactive: -0.23,inactive: 0,inactive: 0.075,inactive: -0.067,inactive: 0.019
SOCS2 (UniProt O14508),inactive: 0.047,inactive: -0.034,inactive: -0.035,inactive: -0.072,inactive: -0.054,inactive: 0.056,inactive: 0.048,inactive: -0.031,inactive: -0.018,inactive: -0.013
SMNDC1 (UniProt O75940),inactive: 0.029,inactive: 0.046,inactive: 0.011,inactive: 0.06,inactive: 0.036,inactive: 0.159,inactive: 0.015,inactive: 0.001,inactive: -0.014,inactive: 0.122
SNCA (UniProt P37840),inactive: 0.024,inactive: -0.023,inactive: 0.028,inactive: -0.013,inactive: -0.018,inactive: 0.085,inactive: -0.048,inactive: -0.05,inactive: 0.012,inactive: 0
SMG8 isoform 2 (UniProt Q8ND04),inactive: -0.133,inactive: -0.006,inactive: -0.42,inactive: 0.025,inactive: -0.044,inactive: -0.125,inactive: 0.039,inactive: 0.037,inactive: -0.032,inactive: -0.014
SNUPN (UniProt O95149),inactive: 0.037,inactive: -0.039,inactive: -0.089,inactive: -0.026,inactive: -0.045,inactive: -0.034,inactive: 0.037,inactive: 0.07,–,inactive: -0.184
SNRNP40 (UniProt Q96DI7),inactive: -0.016,inactive: 0.045,inactive: 0.068,inactive: -0.026,inactive: 0.086,inactive: 0.177,inactive: 0.038,inactive: -0.019,–,active: 1.03
SMIM12 (UniProt Q96EX1),inactive: 0.108,inactive: 0.009,inactive: 0.124,inactive: 0.07,inactive: 0.015,inactive: 0.013,inactive: 0.037,inactive: 0.035,inactive: -0.012,inactive: 0.093
"SMIM26, A0A096LP01",inactive: 0.096,inactive: -0.043,inactive: -0.014,inactive: -0.017,inactive: -0.099,inactive: 0.039,inactive: 0.012,inactive: -0.057,inactive: 0.003,inactive: -0.052
SOS1 (UniProt Q07889),inactive: -0.01,inactive: 0.157,inactive: -0.042,inactive: 0.124,inactive: -0.234,inactive: -0.028,inactive: 0.106,inactive: 0.031,inactive: 0.075,inactive: 0.117
SNAP23 (UniProt O00161),inactive: 0.013,inactive: -0.013,inactive: -0.003,inactive: -0.029,inactive: 0.021,inactive: 0.034,inactive: 0.024,inactive: -0.061,inactive: 0.015,inactive: 0.007
"SNU13, A0A3B3IUA2",inactive: -0.01,inactive: -0.046,inactive: -0.051,inactive: -0.146,inactive: -0.008,inactive: 0.002,inactive: -0.08,inactive: -0.007,inactive: 0.129,inactive: 0.088
SNRPA (UniProt P09012),inactive: 0.007,inactive: 0.046,inactive: 0.097,inactive: 0.006,inactive: 0.187,inactive: 0.198,inactive: 0.029,inactive: 0.012,inactive: -0.007,inactive: 0.02
SMYD5 (UniProt Q6GMV2),inactive: 0.051,inactive: 0.002,inactive: -0.012,inactive: -0.051,inactive: -0.019,inactive: 0.025,inactive: -0.008,inactive: -0.036,inactive: -0.002,inactive: 0.025
SMC2 (UniProt O95347),inactive: -0.052,inactive: -0.054,inactive: 0.061,inactive: 0.034,inactive: -0.075,inactive: -0.083,inactive: 0.057,inactive: 0.004,inactive: -0.01,inactive: -0.017
SMIM8 (UniProt Q96KF7),inactive: 0.056,inactive: -0.013,inactive: 0.025,inactive: -0.112,inactive: 0.04,inactive: 0.016,inactive: 0.052,inactive: -0.08,inactive: -0.027,inactive: 0.008
SMC1A (UniProt Q14683),inactive: -0.008,inactive: -0.031,inactive: -0.139,inactive: 0.01,inactive: -0.036,inactive: -0.002,inactive: -0.015,inactive: -0.006,inactive: -0.014,inactive: -0.101
SMARCC1 (UniProt Q92922),inactive: -0.126,inactive: 0.043,inactive: -0.025,inactive: 0.062,inactive: -0.13,inactive: -0.105,inactive: 0.177,inactive: 0.086,inactive: 0.144,inactive: 0.057
SPAG5 (UniProt Q96R06),inactive: -0.184,inactive: -0.13,inactive: -0.1,inactive: 0.158,inactive: -0.038,inactive: -0.335,inactive: 0.172,inactive: 0.414,inactive: -0.021,inactive: 0.128
SMARCE1 (UniProt Q969G3),inactive: -0.29,inactive: 0.185,inactive: -0.006,inactive: 0.163,inactive: -0.043,inactive: -0.128,inactive: -0.037,inactive: -0.031,–,inactive: -0.091
SNX17 (UniProt Q15036),inactive: -0.034,inactive: -0.042,inactive: -0.116,inactive: 0.183,inactive: -0.055,inactive: -0.072,inactive: 0.043,inactive: -0.116,inactive: 0.218,inactive: 0.052
SMPD2 (UniProt O60906),inactive: 0.162,inactive: 0.157,inactive: 0.035,inactive: -0.044,inactive: -0.009,inactive: -0.08,inactive: 0.001,inactive: 0.042,inactive: -0.032,inactive: 0.13
SORBS1 isoform 12 (UniProt Q9BX66),inactive: 0.036,inactive: -0.01,inactive: -0.12,inactive: 0.033,inactive: -0.026,inactive: -0.019,inactive: -0.006,inactive: -0.013,inactive: 0.039,inactive: 0.001
SNRPB isoform 3 (UniProt P14678),inactive: 0.02,inactive: -0.002,inactive: 0.095,inactive: 0.119,inactive: 0.1,inactive: 0.222,inactive: -0.052,inactive: 0.002,inactive: -0.044,inactive: 0.05
SOD1 (UniProt P00441),inactive: 0.055,inactive: -0.017,inactive: -0.006,inactive: -0.093,inactive: 0.038,inactive: 0.1,inactive: 0.156,inactive: -0.038,inactive: -0.051,inactive: -0.038
SND1 (UniProt Q7KZF4),inactive: -0.219,inactive: -0.007,inactive: 0.175,inactive: 0.373,inactive: 0.13,inactive: -0.147,inactive: 0.329,inactive: 0.672,inactive: 0.007,inactive: 0.065

# Some of the entries so far, tab-delimited:
Target	log2 fold change (IRAK-1-4 Inhibitor I)	log2 fold change (ibrutinib)	log2 fold change [1]	log2 fold change (ralimetinib)	log2 fold change [2]	log2 fold change [3]	log2 fold change [4]	log2 fold change (pinometostat)	log2 fold change [5]	log2 fold change [6]
SNCA (UniProt P37840)	inactive: 0.024	inactive: -0.023	inactive: 0.028	inactive: -0.013	inactive: -0.018	inactive: 0.085	inactive: -0.048	inactive: -0.05	inactive: 0.012	inactive: 0
SMG8 isoform 2 (UniProt Q8ND04)	inactive: -0.133	inactive: -0.006	inactive: -0.42	inactive: 0.025	inactive: -0.044	inactive: -0.125	inactive: 0.039	inactive: 0.037	inactive: -0.032	inactive: -0.014
